PubChem BioAssay AID2685 (National Center for Advancing Translational Sciences (NCATS), 2010)
The list shows a part of the results. Shown are side measurements of this screen, not its main read-out; they come without a call. Most of these compounds were active or inconclusive in the main read-out, so they are no random draw. The note in brackets gives the kind of curve behind each potency; many fits are weak.

Assay: qHTS Assay for Lipid Storage Modulators in Drosophila S3 Cells;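 as to cell number change: cells counted by Cell Tracker Red CMTPX staining in the red channel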
Settings: BODIPY lipid droplet fluorescence, 18-24 h; for cell number change: measured here: cell count max response, cells fed with added oleic acid
In short: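 Laser-scanning cytometry quantifies lipid droplet accumulation (500–530 nm total intensity; droplet/cell object ratio) in oleic acid-fed (400 uM added) Drosophila S3 cells treated with a concentration series. 20 uM Triacsin C defined 100% inhibition.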

[1] = measured here: cell number channel AC50, cells fed with added oleic acid
[2] = measured here: lipid fluorescence (Fed channel) AC50, cells fed with added oleic acid

SMILES	AC50 [1]	AC50 [2]	cell number change [%]
COC(=O)c1cc(OC)c(OC)cc1NC(=O)CC1CCCCC1	0.58 µM [rising, full curve]	1.16 µM [rising, partial curve]	–
Cc1ccc(CCNC(=O)C2CCCN(C(=O)c3cc4sccc4n3C)C2)cc1 (stereo unspecified)	–	0.146 µM [falling, full curve, poor fit]	–
N#Cc1ccc(CN2CCN(C(=O)c3cn(Cc4ccccc4)nc3-c3cccnc3)CC2)cc1	–	25.9 µM [rising, single point]	-9.77
COc1ccc(N2CCN(C(=O)C(Cc3ccccc3)n3cccc3)CC2)cc1 (stereo unspecified)	18.4 µM [rising, single point]	18.4 µM [rising, single point]	43.3
COc1ccccc1C(=O)Nc1ccc2c(c1)CN(Cc1cnc(C)s1)CC2	0.231 µM [rising, full curve, poor fit]	–	7.53
O=C(COC(=O)c1cc2ccccc2o1)NCc1ccco1	–	29.1 µM [falling, single point]	–
COCCn1c(=O)[nH]c2cc(C(=O)NCc3cccnc3)ccc2c1=O	29.1 µM [falling, partial curve, poor fit]	–	-105
Cc1ccc(-c2c(C(=O)NCc3ccccc3)oc(=O)c3ccccc23)cc1	–	20.6 µM [rising, single point]	22.6
COC(=O)/C(C#N)=C/c1ccc(N2CCOCC2)c([N+](=O)[O-])c1	16.4 µM [falling, partial curve, poor fit]	23.1 µM [falling, partial curve, poor fit]	-49.7
COC(=O)c1ccccc1C(=O)N(Cc1cccnc1)CC1CCCN(C2CCCCC2)C1 (stereo unspecified)	–	29.1 µM [rising, single point]	-2.75
Cc1n[nH]c(=O)c2c(NC(=O)COC(=O)c3cc(F)cc(F)c3)oc(C)c12	0.184 µM [rising, full curve, poor fit]	0.461 µM [rising, full curve]	33
O=C(O)COc1ccccc1/C=C1\SC(=S)N(NC(=O)c2ccccc2O)C1=O	–	29.1 µM [rising, single point]	8.25
CCN(CC(=O)Nc1ccccc1OC)C(=O)CSCc1ccc(C)cc1	–	2.06 µM [rising, full curve, poor fit]	-9.77
CCOC(=O)[C@@H]1[C@H]2COc3ccc(Br)cc3[C@H]2N2C(=O)N(c3ccc(Br)cc3)C(=O)[C@]12C	32.6 µM [rising, single point]	–	31.4
CCCCn1c(N)c(N(C(=O)CSc2nnnn2-c2ccccc2C)C2CCCC2)c(=O)[nH]c1=O	29.1 µM [rising, single point]	–	48.6
Cc1ccc(OCC(=O)Nc2ccc(S(=O)(=O)N3CCCC3)cc2)cc1	–	0.206 µM [rising, single point]	2.94
Nn1c(SCC(=O)N2CCOCC2)nnc1C1CC1	0.58 µM [falling, single point]	–	–
Cc1ccc(S(=O)(=O)N2CCCCC2)cc1NC(=O)CCNC(=O)c1ccc([N+](=O)[O-])cc1	–	–	-21.6
O=C(COc1ccc(S(=O)(=O)N2CCOCC2)cc1)Nc1ccccc1C(F)(F)F	0.206 µM [rising, full curve, poor fit]	4.11 µM [rising, single point]	33.6

SMILES	AC50 [1]	AC50 [2]	cell number change [%]
CC(=O)Nc1ccc(C(=O)N/N=C/c2ccccc2OCc2ccccc2)cc1	0.116 µM [rising, full curve, poor fit]	0.13 µM [rising, full curve, poor fit]	-19.5
CCN(CC)c1ccc(NC(=O)c2ccccc2Br)cc1S(=O)(=O)Nc1ccccc1OC	–	–	-15.9
CN(NC(=S)Nc1ccc(OC(F)F)cc1)C(=S)Nc1ccc(OC(F)F)cc1	16.4 µM [falling, single point]	–	-45.8
CCOc1ccc(NC(=S)NC(=O)c2c(Cl)cnn2CC)c([N+](=O)[O-])c1	8.2 µM [rising, partial curve]	–	32.8
CC(OC(=O)Cn1cnc2ccccc2c1=O)C(=O)N(C)c1ccccc1 (stereo unspecified)	–	–	14.1
Cc1nn(-c2ccccc2)c2c1C(c1cccc([N+](=O)[O-])c1)N(c1ccccc1)C(=O)N2 (stereo unspecified)	–	–	16.9
CCCCn1cc(C(=O)c2cc(Br)ccc2O)cc(C#N)c1=O	–	–	-17.5
CC(Sc1nnc(-c2ccc(O)cc2)o1)C(=O)Nc1cccc2ccccc12 (stereo unspecified)	–	–	-5.6
O=C1CCC([N+](=O)[O-])C(c2ccccc2F)N1 (stereo unspecified)	0.00411 µM [rising, full curve, poor fit]	29.1 µM [falling, single point]	10.8
COc1ccccc1CNC(=O)C1(c2ccc(Cl)cc2)CC1	–	13 µM [rising, single point]	26.9
CC(C)CC1NC(=O)N(CC(=O)c2ccc3c(c2)OCCO3)C1=O (stereo unspecified)	–	29.1 µM [rising, single point]	1.16
O=C(COc1ccc(Cl)cc1Cl)NC1CCSC1=O (stereo unspecified)	1.46 µM [rising, full curve, poor fit]	29.1 µM [rising, single point]	34.4
COCCNC(=O)c1ccc(N2CC3CC(C2)c2cccc(=O)n2C3)c(NC(=O)c2cc(OC)cc(OC)c2)c1 (stereo unspecified)	–	0.116 µM [falling, single point]	–
CC(C)(C)C(=O)CSc1nc2c(c(-c3cccs3)c1C#N)CCC2	–	1.64 µM [rising, partial curve]	25.6
COc1ccccc1CNS(=O)(=O)c1ccc2c(c1)CC(C)N2C(=O)C1CC1 (stereo unspecified)	–	29.1 µM [falling, single point]	-27
CC(=O)N1Cc2ccccc2CC1C(=O)NCc1ccccc1F (stereo unspecified)	–	6.51 µM [rising, partial curve, poor fit]	9.13
COc1ccc2occ(NC(C)=O)c2c1	–	0.517 µM [rising, single point]	6
COc1ccccc1-c1csc2ncnc(Sc3nnnn3C)c12	–	20.6 µM [falling, single point]	10.9
